According to paper PMC8278077:
No constants are given. Whether binding was seen depends on the method and setting. In cells and extracts the contact can be indirect. Some entries that bind do so weakly or less than the wild type. For part of these data: Sequences can lack the tags named with a protein. Values belong to the molecule of their own block, whether it stands above or below them.

Protein sequences, listed by entry. Tags and fused reporters are not part of them.
UniProt P21333: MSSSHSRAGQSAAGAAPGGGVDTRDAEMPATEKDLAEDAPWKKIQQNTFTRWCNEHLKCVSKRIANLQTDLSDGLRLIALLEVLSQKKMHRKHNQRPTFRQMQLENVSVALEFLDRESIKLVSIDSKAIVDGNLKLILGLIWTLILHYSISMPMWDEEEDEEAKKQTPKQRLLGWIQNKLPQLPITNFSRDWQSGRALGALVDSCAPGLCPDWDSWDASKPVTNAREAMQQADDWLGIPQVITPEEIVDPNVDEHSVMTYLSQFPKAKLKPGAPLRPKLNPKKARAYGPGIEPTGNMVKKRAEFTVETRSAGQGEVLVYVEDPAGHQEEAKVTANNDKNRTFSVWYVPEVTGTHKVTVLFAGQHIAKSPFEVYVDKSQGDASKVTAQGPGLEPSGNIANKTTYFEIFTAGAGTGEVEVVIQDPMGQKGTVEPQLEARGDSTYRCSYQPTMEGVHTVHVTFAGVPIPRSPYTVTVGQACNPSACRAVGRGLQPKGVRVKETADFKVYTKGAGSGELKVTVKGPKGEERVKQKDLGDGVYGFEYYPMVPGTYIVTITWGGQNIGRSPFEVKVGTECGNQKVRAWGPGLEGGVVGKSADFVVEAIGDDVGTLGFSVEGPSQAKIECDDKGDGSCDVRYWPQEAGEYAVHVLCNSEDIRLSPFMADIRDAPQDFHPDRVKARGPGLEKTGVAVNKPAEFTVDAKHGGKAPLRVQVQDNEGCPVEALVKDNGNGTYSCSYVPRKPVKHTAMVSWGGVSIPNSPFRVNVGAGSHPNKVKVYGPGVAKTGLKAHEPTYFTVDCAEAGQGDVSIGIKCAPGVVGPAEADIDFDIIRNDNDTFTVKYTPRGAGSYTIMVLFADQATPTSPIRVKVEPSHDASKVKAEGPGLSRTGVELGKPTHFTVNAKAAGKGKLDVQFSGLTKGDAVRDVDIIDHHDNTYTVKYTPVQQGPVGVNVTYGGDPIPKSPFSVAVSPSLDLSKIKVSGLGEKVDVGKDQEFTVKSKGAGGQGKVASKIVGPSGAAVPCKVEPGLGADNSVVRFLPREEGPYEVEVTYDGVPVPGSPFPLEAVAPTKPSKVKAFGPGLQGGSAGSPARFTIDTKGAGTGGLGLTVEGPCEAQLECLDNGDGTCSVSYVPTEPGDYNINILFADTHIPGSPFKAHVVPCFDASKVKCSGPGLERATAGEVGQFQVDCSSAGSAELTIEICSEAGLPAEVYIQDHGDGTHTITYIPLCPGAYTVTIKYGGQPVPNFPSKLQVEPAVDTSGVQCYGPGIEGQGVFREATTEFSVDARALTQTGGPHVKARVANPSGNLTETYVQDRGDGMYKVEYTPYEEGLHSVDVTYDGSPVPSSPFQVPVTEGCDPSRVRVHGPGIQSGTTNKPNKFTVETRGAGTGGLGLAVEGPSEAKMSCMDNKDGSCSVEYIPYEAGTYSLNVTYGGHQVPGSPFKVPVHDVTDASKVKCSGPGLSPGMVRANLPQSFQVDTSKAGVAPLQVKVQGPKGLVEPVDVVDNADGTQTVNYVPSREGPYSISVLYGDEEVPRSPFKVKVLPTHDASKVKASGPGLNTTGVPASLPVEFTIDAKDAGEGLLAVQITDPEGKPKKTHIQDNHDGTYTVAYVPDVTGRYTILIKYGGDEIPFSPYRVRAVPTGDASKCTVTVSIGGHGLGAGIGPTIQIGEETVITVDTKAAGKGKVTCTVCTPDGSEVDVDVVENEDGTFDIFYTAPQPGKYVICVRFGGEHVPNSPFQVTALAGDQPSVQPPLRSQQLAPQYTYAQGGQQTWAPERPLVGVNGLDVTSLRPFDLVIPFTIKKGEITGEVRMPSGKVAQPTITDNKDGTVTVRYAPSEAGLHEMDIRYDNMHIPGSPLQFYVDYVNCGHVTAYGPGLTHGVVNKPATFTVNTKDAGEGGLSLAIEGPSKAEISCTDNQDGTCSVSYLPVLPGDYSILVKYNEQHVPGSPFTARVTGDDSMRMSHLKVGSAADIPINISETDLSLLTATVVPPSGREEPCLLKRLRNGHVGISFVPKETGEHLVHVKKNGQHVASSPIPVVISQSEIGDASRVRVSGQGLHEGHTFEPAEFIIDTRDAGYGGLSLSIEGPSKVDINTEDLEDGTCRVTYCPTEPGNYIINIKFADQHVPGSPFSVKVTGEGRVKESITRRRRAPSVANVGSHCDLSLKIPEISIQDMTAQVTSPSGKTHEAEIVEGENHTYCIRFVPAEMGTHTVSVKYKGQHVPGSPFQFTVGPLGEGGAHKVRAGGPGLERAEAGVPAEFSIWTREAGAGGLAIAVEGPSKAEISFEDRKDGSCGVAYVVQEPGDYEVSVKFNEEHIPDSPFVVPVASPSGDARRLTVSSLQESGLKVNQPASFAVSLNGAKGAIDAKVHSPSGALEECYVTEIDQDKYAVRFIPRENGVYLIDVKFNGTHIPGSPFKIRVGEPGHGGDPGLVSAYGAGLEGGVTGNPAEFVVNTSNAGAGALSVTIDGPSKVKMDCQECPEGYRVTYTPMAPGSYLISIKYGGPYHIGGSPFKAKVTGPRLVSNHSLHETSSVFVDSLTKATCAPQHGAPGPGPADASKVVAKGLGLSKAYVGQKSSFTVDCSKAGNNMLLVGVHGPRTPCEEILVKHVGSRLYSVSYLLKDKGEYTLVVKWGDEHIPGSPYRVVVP

Columns and labels:
[1] = target: T1, Flag-LXN (UniProt Q9BS40); experiment: co-IP; 293T cells co-transfected with HA-FLNA and Flag-LXN expression vectors; IP with anti-HA or anti-Flag antibody, Western blot
T1 sequence: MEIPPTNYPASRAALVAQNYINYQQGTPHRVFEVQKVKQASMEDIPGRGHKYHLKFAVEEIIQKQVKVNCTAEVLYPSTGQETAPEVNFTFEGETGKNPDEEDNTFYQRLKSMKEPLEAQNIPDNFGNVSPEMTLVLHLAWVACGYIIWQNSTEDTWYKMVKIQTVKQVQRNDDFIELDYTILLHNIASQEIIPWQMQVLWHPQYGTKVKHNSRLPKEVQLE

[2] = target: T2, Latexin (LXN), endogenous in HUVECs (human (endogenous in HUVEC)) (UniProt Q9BS40); experiment: co-IP; endogenous proteins in HUVEC lysate; IP with anti-LXN antibody, 10% SDS-PAGE, immunoblotting
T2 sequence: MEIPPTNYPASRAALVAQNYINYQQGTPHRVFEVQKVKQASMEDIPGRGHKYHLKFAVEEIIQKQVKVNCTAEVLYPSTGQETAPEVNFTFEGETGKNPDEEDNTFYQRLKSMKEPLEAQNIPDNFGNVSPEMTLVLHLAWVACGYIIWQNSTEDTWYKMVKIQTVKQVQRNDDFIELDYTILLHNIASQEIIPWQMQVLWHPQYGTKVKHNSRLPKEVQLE

[3] = target: HA-FLNA (UniProt P21333); experiment: co-IP; 293T cells co-transfected with HA-FLNA and Flag-LXN expression vectors; IP with anti-HA or anti-Flag antibody, Western blot

binding [1]: binds
Molecule: HA-FLNA (from UniProt P21333 1-2647)

binding [2]: binds
Molecule: Filamin A (FLNA), endogenous in HUVECs (from UniProt P21333 1-2647)

binding [3]: binds
B1: Flag-LXN (protein, UniProt Q9BS40 1-222)
chain: MEIPPTNYPASRAALVAQNYINYQQGTPHRVFEVQKVKQASMEDIPGRGHKYHLKFAVEEIIQKQVKVNCTAEVLYPSTGQETAPEVNFTFEGETGKNPDEEDNTFYQRLKSMKEPLEAQNIPDNFGNVSPEMTLVLHLAWVACGYIIWQNSTEDTWYKMVKIQTVKQVQRNDDFIELDYTILLHNIASQEIIPWQMQVLWHPQYGTKVKHNSRLPKEVQLE
